Reference: PMC4858568
Results are given in words; binding and its absence hold for the method and conditions named. A result given as binding can be weak or reduced; the word gives no strength. Tags and fused reporters may be left off the sequences shown.

Target: GST-PARP-1 CAT domain
Experiment: pull-down; recombinant His-C4orf27 incubated with GST-PARP-1 or GST-PARP-2 fragments, GST pull-down, immunoblotting; both purified

B1: Recombinant His-C4orf27 (protein, UniProt Q9NWY4 1-346)
chain: MVGGGGKRRPGGEGPQCEKTTDVKKSKFCEADVSSDLRKEVENHYKLSLPEDFYHFWKFCEELDPEKPSDSLSASLGLQLVGPYDILAGKHKTKKKSTGLNFNLHWRFYYDPPEFQTIIIGDNKTQYHMGYFRDSPDEFPVYVGINEAKKNCIIVPNGDNVFAAVKLFLTKKLREITDKKKINLLKNIDEKLTEAARELGYSLEQRTVKMKQRDKKVVTKTFHGAGLVVPVDKNDVGYRELPETDADLKRICKTIVEAASDEERLKAFAPIQEMMTFVQFANDECDYGMGLELGMDLFCYGSHYFHKVAGQLLPLAYNLLKRNLFAEIIEEHLANRSQENIDQLAA
  binding: binds
